The values that follow come from article doi:10.1101/2024.05.31.596839.

For this experiment, the target named is T1, BoYb (Drosophila) (UniProt Q9VNP5).
T1 sequence: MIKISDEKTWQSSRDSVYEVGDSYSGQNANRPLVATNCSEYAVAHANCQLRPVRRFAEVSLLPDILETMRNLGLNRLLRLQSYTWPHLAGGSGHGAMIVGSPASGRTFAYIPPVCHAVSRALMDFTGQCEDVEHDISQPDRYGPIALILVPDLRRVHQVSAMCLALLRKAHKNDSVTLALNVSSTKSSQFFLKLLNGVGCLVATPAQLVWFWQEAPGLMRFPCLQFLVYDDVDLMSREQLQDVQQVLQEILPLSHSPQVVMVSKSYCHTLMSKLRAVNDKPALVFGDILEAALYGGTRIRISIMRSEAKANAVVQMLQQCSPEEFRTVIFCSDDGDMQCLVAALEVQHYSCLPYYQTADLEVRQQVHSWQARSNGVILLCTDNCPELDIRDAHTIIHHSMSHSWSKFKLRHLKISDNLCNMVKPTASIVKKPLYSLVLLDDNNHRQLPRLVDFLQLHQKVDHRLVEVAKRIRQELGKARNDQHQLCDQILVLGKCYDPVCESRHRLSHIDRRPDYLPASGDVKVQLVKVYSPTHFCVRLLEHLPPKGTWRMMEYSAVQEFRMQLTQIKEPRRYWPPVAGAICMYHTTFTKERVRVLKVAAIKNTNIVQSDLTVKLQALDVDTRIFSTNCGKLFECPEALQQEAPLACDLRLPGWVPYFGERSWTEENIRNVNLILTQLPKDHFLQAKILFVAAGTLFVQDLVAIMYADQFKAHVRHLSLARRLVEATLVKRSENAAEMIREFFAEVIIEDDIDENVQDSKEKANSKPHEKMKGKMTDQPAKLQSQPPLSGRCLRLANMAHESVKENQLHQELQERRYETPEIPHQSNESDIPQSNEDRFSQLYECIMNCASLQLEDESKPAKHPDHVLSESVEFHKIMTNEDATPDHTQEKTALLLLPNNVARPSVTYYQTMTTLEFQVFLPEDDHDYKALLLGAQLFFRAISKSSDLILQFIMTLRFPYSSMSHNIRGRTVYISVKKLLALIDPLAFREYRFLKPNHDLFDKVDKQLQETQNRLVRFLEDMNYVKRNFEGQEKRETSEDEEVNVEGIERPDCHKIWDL
As to the kind of experiment: ReLo.

Results are given in words; binding and its absence hold for the method and conditions named. Some entries that bind do so weakly or less than the wild type.

B1: Vreteno (protein, UniProt Q9VCU7 1-691)
chain: MESESSQDDWSAFDPMSREYYDQVGNRYTNESGQKLIMEAPLPPKDEKEQRATRQAKYPYLVVPKSSPYVTEKMLINFFGRALIKEMEFRRLSRVYFVYFENIASLETAQQRVQRYPNLIKCITGRPQKEREITSDPVTSTEPMPTPGPAISATERTPVNHNREVPISTGGQNHPEFFRPPLVTKDDYKRGSLLATNDPIQRYLNVKYEFALERHDIYKLKDETRIPQVVLHFRSGRTIPLSTVAVTEEDKTKSLLEDGVSKCVVCQNWTDTFCKLCKMPFCNASCFADVAEQHKQACGKGEILNLDEKVGRKYPKPGLPPSGSKVRITAFEQTNVVYVRSADIQIDIAYYTVLTEVMMLGKDASKLQSTPVCGQIVLYKFEGHMSRAMVLNVDNIKEIYVVFIDFGSVEVTQLERLYECSSYLAGLTCYPVAVKLRGVPRRFVGPNIREVMYELDQSLVFNIKYSSREYDTSKGMQVVVMTEIDINRSLNRLFKTILTPVEPSVSDLGYKEDCLPYIPLHCGKNINVVVMDNTFIQCGFIYCTSIDLAYEVTKMQRDIQEYGEKIAKCATYAPPINELCIAKYEGKWRRGLSVELVGDGYPSILFIDYGNIVPTHVTDIRPYPPQFIFPIMTTQLDLIGVPEKPTDEQIKWLDKNYPIGSVITCSEITFDEETNSYSTRIEKLQEFLSLD
Take B1: the binding entry is reported as “binds”.
